Test results published in paper PMC10960850.
No constants are given. Whether binding was seen depends on the method and setting. In cells and extracts the contact can be indirect. Some entries that bind do so weakly or less than the wild type.

Chains of the proteins cited; added tags and fusions are not shown.
UniProt P25911: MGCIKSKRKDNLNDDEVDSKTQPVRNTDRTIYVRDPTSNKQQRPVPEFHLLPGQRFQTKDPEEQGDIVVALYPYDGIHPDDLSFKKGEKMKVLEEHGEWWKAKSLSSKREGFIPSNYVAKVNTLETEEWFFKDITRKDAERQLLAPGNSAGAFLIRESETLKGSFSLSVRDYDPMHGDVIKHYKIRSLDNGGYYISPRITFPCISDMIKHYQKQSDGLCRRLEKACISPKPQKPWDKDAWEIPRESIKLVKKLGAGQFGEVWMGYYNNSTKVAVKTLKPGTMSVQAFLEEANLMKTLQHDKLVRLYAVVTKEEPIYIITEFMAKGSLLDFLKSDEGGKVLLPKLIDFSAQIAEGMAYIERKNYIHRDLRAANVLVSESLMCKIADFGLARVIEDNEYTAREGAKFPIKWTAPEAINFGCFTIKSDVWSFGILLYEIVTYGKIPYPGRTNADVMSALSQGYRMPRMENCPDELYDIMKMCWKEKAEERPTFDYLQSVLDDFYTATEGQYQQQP

Biological target: LYN (mouse (endogenous in WT splenic B cells)) (UniProt P25911)
Assay: co-IP; endogenous proteins; purified splenic B cells activated with sAg (0 and 5 min), lysed with RIPA buffer; lysate with 1 ug of the indicated antibody for 2 h, then protein G Sepharose overnight; beads washed with PBS; immunoblot for USP25

B1: ubiquitin-specific protease 25 (USP25) (enzyme, UniProt P57080 1-1055)
chain: MTVEQNVLQQSAAQKHQQTFLNQLREITGINDAQILQQALKDSNGNLELAVAFLTAKNAKTPPQEETGYYQTALPGNDRYISVGSQADANVIDLTGDDKDDLQRAIALSLAESNRAFRETGITDEEQAISRVLEASIAENKACLKRTPIEVWRDSRNPYDRKRQEKAPVGLKNVGNTCWFSAVIQSLFNLLEFRRLVLNYKPPSNAQDLPRNQKEHRNLPFMRELRYLFALLVGTKRKYVDPSRAVEILKDAFKSNDSQQQDVSEFTHKLLDWLEDAFQMKAEEETDEEKPKNPMVELFYGRFLAMGVLEGKKFENTEMFGQYPLQVNGFKDLHECLEAAMIEGEIESLHSDNSGKSGQEHWFTELPPVLTFELSRFEFNQALGRPEKIHNKLEFPQVLYLDRYMHRNREITRIKREEIKRLKDYLTVLQQRLERYLSYGSGPKRFPLVDVLQYALEFASSKPVCTSPVDDIDASSSASGPLPSQSLPSTTEQQGPCASDLPGSSSPASGAALPLRSVIHKPFTQSRIPPDLPMHPAPRHITEEELCVLESCLHRWRTEIENDTRDLQESISRIHRTIELMYSDKSMIQVPYRLHAVLVHEGQANAGHYWAYIFDHRESRWMKYNDIAVTKSSWEELVRDSFGGYRNASAYCLMYIDDKAQFLIQEEFNKETGQALVGMETLPPDLRDFVEEDNQRFEKELEEWDTQLAQRSLQEKLLAAPKLREAEASATTAQAGGADYLEQPSRSDLSKHWKEETLRVIAKASHDLEDKGPETVLQSAIKLEYSRLVKLAQEDTPPETDYRLHHVLVYFIQNQAPKKIIEKTLLEQFGDRNLSFDERCHNIMKVAQAKLEMIKPEEVNLEEYEEWHADYKKFRETTMYLITGLENFQRESYIDSLLFLLCAYQNNKELLSKGPYRGHDGELISHYRRECLLKLNEQAAELFESGEDGDVNNGLIIMNEFIVPFLPLLLVDDMEEKDILAVEDMRNRWCSYLGQEMEANLQEKLTDFLPKLLDCSTEIKGFHEPPKLPSYSAHELCERFARIMLSLSRTPADGR
Q: How did the binding turn out when B1 was run?
A: Its binding is “binds”.
